Results taken from publication PMC2253824.
Changes are numbered by the printed parent chain. No constants are given. Whether binding was seen depends on the method and setting. For some of these results: Binding can be weak; no strength is given. Tags and fused reporters may be left off the sequences shown.

Experiments:
Test in all cases: pull-down; 10 µg GST-TTC4 (wild type or mutant) on glutathione beads with 6 µg HSP90; 10 mM Tris pH 7.5, 150 mM NaCl, 0.1% triton X100; 1 hour at 4°C; Coomassie stained gel; both purified
[1] = biological target: T1, GST-TTC4 wild type (human) (UniProt O95801)
T1 sequence: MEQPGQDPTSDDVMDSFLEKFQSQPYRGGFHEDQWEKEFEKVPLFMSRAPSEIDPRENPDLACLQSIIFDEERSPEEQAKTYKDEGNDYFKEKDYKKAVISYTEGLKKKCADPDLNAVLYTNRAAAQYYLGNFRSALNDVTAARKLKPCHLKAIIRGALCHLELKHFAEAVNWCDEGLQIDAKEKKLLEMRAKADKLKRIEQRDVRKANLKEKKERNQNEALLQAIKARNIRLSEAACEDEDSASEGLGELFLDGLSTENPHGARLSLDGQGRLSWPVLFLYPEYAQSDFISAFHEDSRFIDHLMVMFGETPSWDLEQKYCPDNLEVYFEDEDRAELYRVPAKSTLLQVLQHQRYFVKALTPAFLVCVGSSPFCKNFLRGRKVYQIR

[2] = biological target: T2, K152E GST-TTC4 mutant (human) (UniProt O95801)
T2 sequence: T1 sequence with K152E

[3] = biological target: T3, K152E, R156E GST-TTC4 mutant (human) (UniProt O95801)
T3 sequence: T1 sequence with K152E, R156E

[4] = biological target: T4, R156E GST-TTC4 mutant (human) (UniProt O95801)
T4 sequence: T1 sequence with R156E

purified HSP90 (human)
binding [1]: binds
binding [2]: no binding (tested: 6 µg of HSP90 with 10 µg of GST-TTC4)
binding [3]: no binding (tested: 6 µg of HSP90 with 10 µg of GST-TTC4)
binding [4]: no binding (tested: 6 µg of HSP90 with 10 µg of GST-TTC4)
